Results: paper PMC7226988
No constants are given. Whether binding was seen depends on the method and setting. In cells and extracts the contact can be indirect. These calls come from enrichment with a bait or labelling near it, and not all partners need be listed. Tags and fused reporters may be left off the sequences shown.

T1: HA-tagged human sodium taurocholate cotransporting polypeptide (HA-hNTCP), stably expressed in HepG2 cells (human) (UniProt Q14973)
T1 sequence: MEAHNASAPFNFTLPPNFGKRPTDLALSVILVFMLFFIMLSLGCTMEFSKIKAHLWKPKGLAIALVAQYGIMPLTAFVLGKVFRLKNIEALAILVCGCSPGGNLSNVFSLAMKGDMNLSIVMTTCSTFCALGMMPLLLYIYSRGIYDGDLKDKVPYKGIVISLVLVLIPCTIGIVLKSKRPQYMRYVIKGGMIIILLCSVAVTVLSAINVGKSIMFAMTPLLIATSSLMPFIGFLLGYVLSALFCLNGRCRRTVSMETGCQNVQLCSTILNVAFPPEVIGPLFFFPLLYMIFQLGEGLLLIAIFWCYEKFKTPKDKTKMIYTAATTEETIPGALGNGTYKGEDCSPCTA

B1: stomatin, endogenous in HepG2 cells (protein, UniProt P27105 1-288)
chain: MAEKRHTRDSEAQRLPDSFKDSPSKGLGPCGWILVAFSFLFTVITFPISIWMCIKIIKEYERAIIFRLGRILQGGAKGPGLFFILPCTDSFIKVDMRTISFDIPPQEILTKDSVTISVDGVVYYRVQNATLAVANITNADSATRLLAQTTLRNVLGTKNLSQILSDREEIAHNMQSTLDDATDAWGIKVERVEIKDVKLPVQLQRAMAAEAEASREARAKVIAAEGEMNASRALKEASMVITESPAALQLRYLQTLTTIAAEKNSTIVFPLPIDMLQGIIGAKHSHLG
B2: chloride channel CLIC-like 1 (CLCC1), endogenous in HepG2 cells (protein, UniProt Q96S66 19-551)
chain: HDDDWIDPTDMLNYDAASGTMRKSQAKYGISGEKDVSPDLSCADEISECYHKLDSLTYKIDECEKKKREDYESQSNPVFRRYLNKILIEAGKLGLPDENKGDMHYDAEIILKRETLLEIQKFLNGEDWKPGALDDALSDILINFKFHDFETWKWRFEDSFGVDPYNVLMVLLCLLCIVVLVATELWTYVRWYTQLRRVLIISFLFSLGWNWMYLYKLAFAQHQAEVAKMEPLNNVCAKKMDWTGSIWEWFRSSWTYKDDPCQKYYELLLVNPIWLVPPTKALAVTFTTFVTEPLKHIGKGTGEFIKALMKEIPALLHLPVLIIMALAILSFCYGAGKSVHVLRHIGGPESEPPQALRPRDRRRQEEIDYRPDGGAGDADFHYRGQMGPTEQGPYAKTYEGRREILRERDVDLRFQTGNKSPEVLRAFDVPDAEAREHPTVVPSHKSPVLDTKPKETGGILGEGTPKESSTESSQSAKPVSGQDTSGNTEGSPAAEKAQLKSEAAGSPDQGSTYSPARGVAGPRGQDPVSSPCG

Biological target: T1, HA-tagged human sodium taurocholate cotransporting polypeptide (HA-hNTCP), stably expressed in HepG2 cells (human)
Assay: affinity purification with mass spectrometry; total lysates of HepG2 cells expressing HA-hNTCP or parental cells, immunoprecipitation with anti-HA coupled beads, label-free quantitative LC-MS/MS, N = 4

Row | Binder | binding
1 | B1 | binds
2 | B2 | binds
